At least one structure is not confirmed: it was looked up by name or label, or the drawing left a doubt.
Tests used:
KP^sh cells [1] = experiment: Cell cycle arrest and senescence (BrdU, SA-β-gal) in KP^sh PDAC cells; format: cell-based, mouse; conditions: KP^sh cells on dox; 3 μM etoposide or 25 nM trametinib, 48 or 96 hours
KP^sh cells [2] = experiment: αKG/succinate ratio in KP^sh PDAC cells (metabolite profiling); format: cell-based, mouse; conditions: KP^sh cells on dox; 3 μM etoposide or 25 nM trametinib, 48 or 96 hours

## CC(=O)Nc1cccc(-n2c(=O)n(C3CC3)c(=O)c3c(Nc4ccc(I)cc4F)n(C)c(=O)c(C)c32)c1 [trametinib]
KP^sh cells [1]
  cell cycle arrest and senescence: triggered cell cycle arrest and senescence
KP^sh cells [2]
  αKG/succinate ratio: neither altered the αKG/succinate ratio

From patent US20220280538A1, “METHODS OF TREATING P53 MUTANT CANCERS USING OGDH INHIBITORS” (MEMORIAL SLOAN KETTERING CANCER CENTER, priority 2019, published 2022)
